Assay [1] has as its target T1, human XKR8 (hXKR8) (human) (UniProt Q9H6D3).
T1 sequence: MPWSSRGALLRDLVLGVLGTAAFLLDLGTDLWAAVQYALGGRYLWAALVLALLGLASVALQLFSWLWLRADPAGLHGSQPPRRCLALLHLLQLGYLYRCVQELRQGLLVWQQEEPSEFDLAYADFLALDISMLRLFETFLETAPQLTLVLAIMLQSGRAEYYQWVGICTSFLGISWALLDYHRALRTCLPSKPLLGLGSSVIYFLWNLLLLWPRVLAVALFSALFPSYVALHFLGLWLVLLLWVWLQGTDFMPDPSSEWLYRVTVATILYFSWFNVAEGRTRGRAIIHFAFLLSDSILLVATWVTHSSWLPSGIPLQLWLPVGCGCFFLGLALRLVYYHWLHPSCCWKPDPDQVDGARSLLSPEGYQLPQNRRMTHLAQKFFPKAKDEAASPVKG
Briefly: cryo-EM structure; co-expressed hXKR8-basigin complex purified via the tag on hXKR8 in GDN, SEC on Superose 6, 2 mg/ml; low-resolution reconstruction at 15.3 Å; both purified.

Assay [2] concerns the target T1, human XKR8 (hXKR8) (human). The assay is described as follows: pull-down; XKR (N-terminal SBP-myc) and basigin-GFP of the same species co-expressed in HEK293T; affinity purification of the XKR protein on Streptactin without 3C cleavage; basigin detected by in-gel fluorescence, XKR9 by silver stain.

Results are given in words; binding and its absence hold for the method and conditions named. Binding can be weak; no strength is given. For some assays here: In cells and extracts the contact can be indirect.

Consider human basigin with C-terminal GFP, for which the binding entry in assay [1] and in assay [2] was “binds” in each case.

The values above are taken from paper PMC8298096.
